Laboratory results: PubChem BioAssay AID1224828 (NIAID, 2016)

Purpose: 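Knock-downs that increase or decrease LPS-induced p65 nuclear translocation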 (primary screen)
Cell system: mouse RAW264.7 G9 macrophage reporter cells (GFP-p65, Tnf promoter-mCherry)
Knock-down reagent: siRNA pool against mouse genes, 100 nM
Duration: 2 days siRNA transfection, then 40 min LPS before fixation
Treatment: LPS (Salmonella minnesota R595) at 10 ng/ml
Measured: 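Imaged p65 nuclear translocation ratio, normalised to the plate median, converted to robust z-scores and averaged across two replicates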
Reading the numbers: p65 translocation robust z-score: higher = more nuclear NF-kappaB p65 after LPS than the plate median; nuclear/cytoplasmic p65 ratio: higher = more nuclear NF-kappaB p65
Active means: 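Active if robust z is above 3.3 (negative regulators) or below -1.56, the Tlr4 control median (positive regulators); activity score 50 or more; control wells not called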
Meaning of the calls: active = hit (p65 shift raised or lowered); inactive = no clear change
The deposit covers about 17,000 reagents; shown is a part drawn at random. 762 of all reagents (4.5%) count as active. 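Active calls include both raised and lowered p65 entry, mostly lowered; wells with fewer than 50 cells lack a z-score.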 The raw values are shown without normalisation. Entries without a mark were called inactive. Reagents against one gene are numbered here.

With knock-down of Cryaa, the record shows nuclear/cytoplasmic p65 ratio, rep 1 = 1.33; nuclear/cytoplasmic p65 ratio, rep 2 = 1.12; low cell count flag fewer than 50 cells per well; well left out of scoring.
Bud13 showed p65 translocation robust z-score -0.48; nuclear/cytoplasmic p65 ratio, rep 1 = 1.5; nuclear/cytoplasmic p65 ratio, rep 2 = 1.71; low cell count flag enough cells to score.
For Otud5 the deposit lists nuclear/cytoplasmic p65 ratio, rep 1 = 1.53; nuclear/cytoplasmic p65 ratio, rep 2 = 1.13; low cell count flag fewer than 50 cells per well; well left out of scoring.
Silencing of Ppp2r5a resulted in: p65 translocation robust z-score -1.24; nuclear/cytoplasmic p65 ratio, rep 1 = 1.35; nuclear/cytoplasmic p65 ratio, rep 2 = 1.22; low cell count flag enough cells to score.
With knock-down of Vil1, the screen gave p65 translocation robust z-score -0.95; nuclear/cytoplasmic p65 ratio, rep 1 = 1.4; nuclear/cytoplasmic p65 ratio, rep 2 = 1.35; low cell count flag enough cells to score.
Against Slc72a1, the entry reads p65 translocation robust z-score 0.81; nuclear/cytoplasmic p65 ratio, rep 1 = 1.78; nuclear/cytoplasmic p65 ratio, rep 2 = 1.65; low cell count flag enough cells to score.
After knock-down of Fra10ac1 the results were p65 translocation robust z-score -0.36; nuclear/cytoplasmic p65 ratio, rep 1 = 1.52; nuclear/cytoplasmic p65 ratio, rep 2 = 1.59; low cell count flag enough cells to score.
For Lrrc9 the deposit lists p65 translocation robust z-score 1.83; nuclear/cytoplasmic p65 ratio, rep 1 = 1.59; nuclear/cytoplasmic p65 ratio, rep 2 = 1.52; low cell count flag enough cells to score.
With knock-down of Klf2 the results were p65 translocation robust z-score -1.08; nuclear/cytoplasmic p65 ratio, rep 1 = 1.29; nuclear/cytoplasmic p65 ratio, rep 2 = 1.27; low cell count flag enough cells to score.
Knock-down of Cfap20 gave: p65 translocation robust z-score -1.93 (active); nuclear/cytoplasmic p65 ratio, rep 1 = 1.23; nuclear/cytoplasmic p65 ratio, rep 2 = 1.38; low cell count flag enough cells to score.
Knock-down of Lyn came out at: p65 translocation robust z-score -1.11; nuclear/cytoplasmic p65 ratio, rep 1 = 2; nuclear/cytoplasmic p65 ratio, rep 2 = 1.24; low cell count flag enough cells to score.
After knock-down of Usp12, the record shows p65 translocation robust z-score 0.12; nuclear/cytoplasmic p65 ratio, rep 1 = 1.58; nuclear/cytoplasmic p65 ratio, rep 2 = 1.47; low cell count flag enough cells to score.
After knock-down of P2ry6, the record shows p65 translocation robust z-score -0.12; nuclear/cytoplasmic p65 ratio, rep 1 = 1.49; nuclear/cytoplasmic p65 ratio, rep 2 = 1.46; low cell count flag enough cells to score.
Nr3c2 gave p65 translocation robust z-score 0.61; nuclear/cytoplasmic p65 ratio, rep 1 = 1.51; nuclear/cytoplasmic p65 ratio, rep 2 = 1.51; low cell count flag enough cells to score.
Tmem64 gave p65 translocation robust z-score -0.83; nuclear/cytoplasmic p65 ratio, rep 1 = 1.4; nuclear/cytoplasmic p65 ratio, rep 2 = 1.34; low cell count flag enough cells to score.
Against Ecd, the values are p65 translocation robust z-score -0.34; nuclear/cytoplasmic p65 ratio, rep 1 = 1.49; nuclear/cytoplasmic p65 ratio, rep 2 = 1.63; low cell count flag enough cells to score.

Look-ups from above.
Result for Nr3c2 under “nuclear/cytoplasmic p65 ratio, rep 2”: 1.51
Vil1, p65 translocation robust z-score → -0.95

More entries:
After knock-down of Mrpl18, the screen gave p65 translocation robust z-score 1.2; nuclear/cytoplasmic p65 ratio, rep 1 = 1.98; nuclear/cytoplasmic p65 ratio, rep 2 = 1.77; low cell count flag enough cells to score.
Vamp5 #1 showed p65 translocation robust z-score -0.31; nuclear/cytoplasmic p65 ratio, rep 1 = 1.5; nuclear/cytoplasmic p65 ratio, rep 2 = 1.69; low cell count flag enough cells to score.
With knock-down of Vamp5 #2 the results were p65 translocation robust z-score -0.21; nuclear/cytoplasmic p65 ratio, rep 1 = 1.25; nuclear/cytoplasmic p65 ratio, rep 2 = 1.2; low cell count flag enough cells to score.
Csnk2a1 scored p65 translocation robust z-score 0.57; nuclear/cytoplasmic p65 ratio, rep 1 = 1.74; nuclear/cytoplasmic p65 ratio, rep 2 = 1.49; low cell count flag enough cells to score.
For Usp53 #1, the values are p65 translocation robust z-score 0.44; nuclear/cytoplasmic p65 ratio, rep 1 = 1.55; nuclear/cytoplasmic p65 ratio, rep 2 = 1.25; low cell count flag enough cells to score.
For Usp53 #2, the values are p65 translocation robust z-score -0.15; nuclear/cytoplasmic p65 ratio, rep 1 = 1.46; nuclear/cytoplasmic p65 ratio, rep 2 = 1.4; low cell count flag enough cells to score.
Depletion of Brinp1 came out at: p65 translocation robust z-score -0.86; nuclear/cytoplasmic p65 ratio, rep 1 = 1.42; nuclear/cytoplasmic p65 ratio, rep 2 = 1.79; low cell count flag enough cells to score.
For Ifi205, the values are p65 translocation robust z-score 0.05; nuclear/cytoplasmic p65 ratio, rep 1 = 1.38; nuclear/cytoplasmic p65 ratio, rep 2 = 1.44; low cell count flag enough cells to score.
With knock-down of Gpx3, the record shows p65 translocation robust z-score 1.98; nuclear/cytoplasmic p65 ratio, rep 1 = 2.06; nuclear/cytoplasmic p65 ratio, rep 2 = 1.72; low cell count flag enough cells to score.
Drap1 gave p65 translocation robust z-score -2.33 (active); nuclear/cytoplasmic p65 ratio, rep 1 = 1.14; nuclear/cytoplasmic p65 ratio, rep 2 = 1.1; low cell count flag enough cells to score.
Or5b108 scored p65 translocation robust z-score -0.72; nuclear/cytoplasmic p65 ratio, rep 1 = 1.5; nuclear/cytoplasmic p65 ratio, rep 2 = 1.33; low cell count flag enough cells to score.
